Results deposited as PubChem BioAssay AID1224830 (NIAID, 2016).

- Aim: 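Regulators of TLR4 signalling towards TNF-alpha in macrophage-like cells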 (primary screen)
- Cells: human THP-1 monocytic leukaemia cells, TNF dual-luciferase reporter clone, PMA-differentiated to macrophage-like cells
- Reagent: siRNA pool against human genes, 50 nM
- Time to read-out: LPS for 4 h, given about 3 days after siRNA transfection
- Conditions: bacterial LPS (TLR4 ligand), 10 ng/ml
- Measured: 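TNF firefly reporter luminescence divided by renilla, normalised to the plate median, then turned into a robust z-score for each replicate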
- Direction: TNF reporter robust z-score: higher = stronger TNF reporter response to LPS
- Active means: 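Each well counts as active if its z-score is over 2.8 or under -1.5; controls are left without a call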
The whole screen tested about 18,000 reagents; below is an unselected part. In the full data, about 2,900 (16%) were called active. 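Calls are made per well; low scores hint the gene aids the LPS response, high scores that it dampens it.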 Repeated entries: four replicate wells of each siRNA pool.

ISCA1P1
- TNF reporter robust z-score: -0.73
- Call: inactive

ISCA1P1
- TNF reporter robust z-score: -0.24
- Call: inactive

ISCA1P1
- TNF reporter robust z-score: -0.48
- Call: inactive

ISCA1P1
- TNF reporter robust z-score: -0.21
- Call: inactive

TPR
- TNF reporter robust z-score: 2.65
- Call: inactive

TPR
- TNF reporter robust z-score: 1.4
- Call: inactive

TPR
- TNF reporter robust z-score: 0.41
- Call: inactive

TPR
- TNF reporter robust z-score: 2.27
- Call: inactive

LACTB
- TNF reporter robust z-score: -0.42
- Call: inactive

LACTB
- TNF reporter robust z-score: -0.23
- Call: inactive

LACTB
- TNF reporter robust z-score: -1.52
- Call: active

USP10
- TNF reporter robust z-score: 0.16
- Call: inactive

USP10
- TNF reporter robust z-score: -0.33
- Call: inactive

USP10
- TNF reporter robust z-score: -0.53
- Call: inactive

USP10
- TNF reporter robust z-score: -1.27
- Call: inactive

UGT1A3
- TNF reporter robust z-score: -0.36
- Call: inactive

UGT1A3
- TNF reporter robust z-score: -0.43
- Call: inactive

UGT1A3
- TNF reporter robust z-score: -0.61
- Call: inactive

UGT1A3
- TNF reporter robust z-score: 0.22
- Call: inactive

Hits, of those listed so far:
LACTB
- TNF reporter robust z-score: -1.52
- Call: active
